Results taken from patent US20240239840A1, “method for the treatment of pain and a medicinal product for administration during pain” (PVP LABS PTE.LTD., priority 2023, published 2024).

Experiment: phase II clinical trial, safety in cancer patients experiencing pain
Conditions: stage 2
Method: Pain intensity was evaluated on a numeric rating scale (NRS) from 0 to 10. […] The patients' physical activity score on the Eastern Cooperative Oncology Group (ECOG) performance status scale was 0 to 3, i.e. they were active and were up and about for over 50% of waking hours (grade 2 on the ECOG scale) or were capable of only limited self-care and confined to bed or chair more than 50% of waking hours (grade 3 on the ECOG scale).
The study was carried out in two stages. The total duration of the trial for each patient was 20 days or less. […] The number of doses depended on pain intensity as evaluated on the NRS scale for each individual patient.
Comments: 1. […] 2. SAE=serious adverse event.

## CN1CC[C@]23c4c5ccc(O)c4O[C@H]2[C@@H](O)C=C[C@H]3[C@H]1C5 [morphine]
  Retention of urine, % of the total number of AEs for the group: (3.7) %
